These are yes or no findings as the source states them, for the method shown. A result given as binding can be weak or reduced; the word gives no strength. For part of these data: In cells and extracts the contact can be indirect. Each block holds one substance with its values, some of them ahead of it.
Tests used:
Orb2A (Drosophila) = Orb2A (Drosophila) (UniProt Q9VSR3); assay: co-IP; S2 cells cotransfected with untagged Orb2A (or Orb2B) and an HA-tagged Hsp40 or Flag-tagged Hsp70; lysate (150 mM NaCl, 50 mM Tris, 1% NP40) with anti-Orb2 antibody and Protein-A beads, 4°C; blot with anti-HA or anti-Flag; control IP with beads only
Mrj-RFP (Drosophila) = Mrj-RFP (Drosophila) (UniProt Q7JUZ6); assay: co-IP; S2 cells cotransfected with Mrj-RFP (or Mrj H31Q-RFP) and an HA-, Flag- or GFP-tagged partner; Mrj-RFP immunoprecipitated (anti-RFP, RFPTrap beads); blot for the partner
GST-Mrj (Drosophila) = GST-Mrj (Drosophila) (UniProt Q7JUZ6); assay: pull-down; GST-Mrj bound to Glutathione beads, incubated overnight with purified Orb2A-His (E. coli) or Orb2A-GFP-His (Sf9); eluted with 40 mM reduced Glutathione; blot with anti-Orb2 and anti-Mrj; both purified
[1] = target: endogenous Mrj (Drosophila (endogenous in fly heads)) (UniProt Q7JUZ6); assay: co-IP; 100 to 150 adult fly heads, lysate (150 mM NaCl, 50 mM Tris, 1% NP40) with anti-Mrj serum and Protein-A beads, 4°C; immunoprecipitate run in SDS-PAGE and SDD-AGE and probed with anti-Orb2

By UniProt entry, the sequences of proteins in these tests, tags left out. Where a name states a change or a piece, a line headed by the entry shows the natural chain unless it says otherwise. Chains listed by the source or under a name are the forms on record and can include a tag or linker.
UniProt Q9VSR3: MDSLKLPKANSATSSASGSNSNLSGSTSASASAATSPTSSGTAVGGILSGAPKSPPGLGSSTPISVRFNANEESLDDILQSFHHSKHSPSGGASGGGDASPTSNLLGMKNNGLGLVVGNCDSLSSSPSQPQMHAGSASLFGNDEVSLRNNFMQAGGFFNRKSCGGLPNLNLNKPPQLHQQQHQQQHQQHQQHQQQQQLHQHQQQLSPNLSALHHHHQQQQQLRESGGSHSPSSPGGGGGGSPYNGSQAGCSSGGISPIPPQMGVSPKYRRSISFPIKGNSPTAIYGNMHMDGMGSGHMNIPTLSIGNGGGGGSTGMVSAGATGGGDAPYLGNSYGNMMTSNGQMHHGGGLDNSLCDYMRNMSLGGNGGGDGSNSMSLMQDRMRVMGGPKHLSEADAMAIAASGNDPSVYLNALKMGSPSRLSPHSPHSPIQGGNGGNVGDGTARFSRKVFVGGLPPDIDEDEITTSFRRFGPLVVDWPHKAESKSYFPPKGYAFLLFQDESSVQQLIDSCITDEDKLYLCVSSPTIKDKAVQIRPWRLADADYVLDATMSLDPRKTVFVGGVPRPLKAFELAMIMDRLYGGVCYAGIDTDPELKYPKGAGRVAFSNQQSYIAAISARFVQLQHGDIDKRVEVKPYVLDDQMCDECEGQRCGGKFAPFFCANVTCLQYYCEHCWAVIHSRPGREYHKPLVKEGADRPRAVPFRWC
Orb2A-His (Q9VSR3-2, form named): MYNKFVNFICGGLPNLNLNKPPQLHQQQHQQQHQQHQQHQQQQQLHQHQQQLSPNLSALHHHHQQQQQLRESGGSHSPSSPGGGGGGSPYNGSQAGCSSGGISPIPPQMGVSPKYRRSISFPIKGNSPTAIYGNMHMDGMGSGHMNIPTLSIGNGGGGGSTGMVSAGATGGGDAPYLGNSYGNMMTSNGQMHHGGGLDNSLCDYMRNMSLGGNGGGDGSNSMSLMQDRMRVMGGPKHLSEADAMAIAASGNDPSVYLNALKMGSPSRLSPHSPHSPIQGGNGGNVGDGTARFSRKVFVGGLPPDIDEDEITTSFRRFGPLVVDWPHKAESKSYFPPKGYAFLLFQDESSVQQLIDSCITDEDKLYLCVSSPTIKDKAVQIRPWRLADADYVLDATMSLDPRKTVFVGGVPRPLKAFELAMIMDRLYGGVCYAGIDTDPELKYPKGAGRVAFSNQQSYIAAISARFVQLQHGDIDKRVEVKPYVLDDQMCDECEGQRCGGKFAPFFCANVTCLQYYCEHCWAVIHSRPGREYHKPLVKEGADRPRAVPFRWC
UniProt Q7JUZ6: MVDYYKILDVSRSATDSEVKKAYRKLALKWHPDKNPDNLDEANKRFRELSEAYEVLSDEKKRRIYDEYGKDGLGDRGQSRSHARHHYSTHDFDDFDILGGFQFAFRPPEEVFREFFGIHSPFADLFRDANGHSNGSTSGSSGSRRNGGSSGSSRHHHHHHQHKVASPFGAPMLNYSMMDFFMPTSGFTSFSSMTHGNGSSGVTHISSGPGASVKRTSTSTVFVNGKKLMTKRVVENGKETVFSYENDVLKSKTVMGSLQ
UniProt Q9VNW0: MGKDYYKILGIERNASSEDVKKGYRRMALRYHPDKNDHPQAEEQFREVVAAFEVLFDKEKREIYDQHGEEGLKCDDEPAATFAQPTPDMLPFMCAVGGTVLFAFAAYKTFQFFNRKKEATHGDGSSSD
UniProt Q9VFV9: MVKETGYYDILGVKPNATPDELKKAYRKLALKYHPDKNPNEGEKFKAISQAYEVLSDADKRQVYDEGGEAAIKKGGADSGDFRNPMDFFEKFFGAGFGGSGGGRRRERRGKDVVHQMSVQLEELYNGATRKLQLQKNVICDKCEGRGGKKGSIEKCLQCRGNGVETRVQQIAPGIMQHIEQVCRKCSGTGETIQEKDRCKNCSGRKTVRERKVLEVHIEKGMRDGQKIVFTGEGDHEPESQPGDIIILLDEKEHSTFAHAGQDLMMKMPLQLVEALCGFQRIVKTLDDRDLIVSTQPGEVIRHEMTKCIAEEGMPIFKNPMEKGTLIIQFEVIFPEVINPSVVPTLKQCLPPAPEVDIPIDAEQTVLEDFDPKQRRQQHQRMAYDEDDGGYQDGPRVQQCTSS
UniProt P11147: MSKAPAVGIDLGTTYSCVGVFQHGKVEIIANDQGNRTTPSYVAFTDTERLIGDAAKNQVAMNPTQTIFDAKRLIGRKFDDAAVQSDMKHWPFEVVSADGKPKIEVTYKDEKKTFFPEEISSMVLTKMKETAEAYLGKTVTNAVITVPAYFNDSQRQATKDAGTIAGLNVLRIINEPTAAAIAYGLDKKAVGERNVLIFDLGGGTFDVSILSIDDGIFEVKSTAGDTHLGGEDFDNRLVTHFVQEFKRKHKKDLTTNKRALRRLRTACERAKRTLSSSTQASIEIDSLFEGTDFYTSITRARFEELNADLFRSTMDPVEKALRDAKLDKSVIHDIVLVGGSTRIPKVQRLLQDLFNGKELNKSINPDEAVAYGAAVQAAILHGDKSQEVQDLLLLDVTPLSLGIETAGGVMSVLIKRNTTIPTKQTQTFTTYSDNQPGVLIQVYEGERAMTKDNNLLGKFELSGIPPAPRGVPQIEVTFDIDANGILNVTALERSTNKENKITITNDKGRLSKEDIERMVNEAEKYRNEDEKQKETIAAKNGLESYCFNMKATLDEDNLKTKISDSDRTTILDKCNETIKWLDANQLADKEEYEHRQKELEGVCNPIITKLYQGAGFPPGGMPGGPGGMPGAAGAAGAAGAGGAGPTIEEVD
UniProt P82910: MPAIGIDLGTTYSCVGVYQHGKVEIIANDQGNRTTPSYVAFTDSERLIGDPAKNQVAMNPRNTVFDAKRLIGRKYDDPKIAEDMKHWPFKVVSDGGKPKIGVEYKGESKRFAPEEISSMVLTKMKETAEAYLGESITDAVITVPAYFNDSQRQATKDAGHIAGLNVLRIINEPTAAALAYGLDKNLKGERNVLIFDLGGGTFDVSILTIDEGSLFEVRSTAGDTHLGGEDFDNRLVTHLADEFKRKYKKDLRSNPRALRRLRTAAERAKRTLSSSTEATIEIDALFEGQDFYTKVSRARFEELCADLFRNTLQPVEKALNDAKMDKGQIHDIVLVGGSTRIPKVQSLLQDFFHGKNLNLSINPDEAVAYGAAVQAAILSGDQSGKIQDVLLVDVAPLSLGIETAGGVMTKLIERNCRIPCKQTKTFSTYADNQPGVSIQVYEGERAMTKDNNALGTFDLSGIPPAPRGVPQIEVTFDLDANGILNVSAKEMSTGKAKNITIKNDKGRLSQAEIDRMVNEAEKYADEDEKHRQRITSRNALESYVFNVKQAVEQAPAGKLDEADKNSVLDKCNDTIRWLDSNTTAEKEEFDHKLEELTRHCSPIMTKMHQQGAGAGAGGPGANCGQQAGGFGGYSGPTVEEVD

binding (Orb2A (Drosophila)): binds
Substance: CG7130 (from UniProt Q9VNW0)

binding (Orb2A (Drosophila)): binds
Substance: DroJ2 (from UniProt Q9VFV9)

binding (Mrj-RFP (Drosophila)): binds
Substance: Hsc70-4 (from UniProt P11147 1-651)

binding (Mrj-RFP (Drosophila)): binds
Substance: Hsp70Aa (from UniProt P82910 1-642)

binding (Mrj-RFP (Drosophila)): binds
Substance: Orb2A-GFP (from UniProt Q9VSR3-2 1-551)

binding (GST-Mrj (Drosophila)): binds
Substance: Orb2A-GFP-His (from UniProt Q9VSR3-2 1-551)

binding (GST-Mrj (Drosophila)): binds
Substance: Orb2A-His (from UniProt Q9VSR3-2 1-551)

binding (Mrj-RFP (Drosophila)): binds
Substance: Orb2B-GFP (from UniProt Q9VSR3-1 1-704)

binding [1]: binds
Substance: monomeric Orb2B (from UniProt Q9VSR3-1 1-704)

— article PMC11034981
